# From paper PMC6925144, “A prospective compound screening contest identified broader inhibitors for Sirtuin 1” (Scientific Reports, 2019)
# The chains behind the UniProt entries cited, without tags or fusion partners. Residues count along the entry.
# UniProt Q96EB6, 2-747 limits assumed: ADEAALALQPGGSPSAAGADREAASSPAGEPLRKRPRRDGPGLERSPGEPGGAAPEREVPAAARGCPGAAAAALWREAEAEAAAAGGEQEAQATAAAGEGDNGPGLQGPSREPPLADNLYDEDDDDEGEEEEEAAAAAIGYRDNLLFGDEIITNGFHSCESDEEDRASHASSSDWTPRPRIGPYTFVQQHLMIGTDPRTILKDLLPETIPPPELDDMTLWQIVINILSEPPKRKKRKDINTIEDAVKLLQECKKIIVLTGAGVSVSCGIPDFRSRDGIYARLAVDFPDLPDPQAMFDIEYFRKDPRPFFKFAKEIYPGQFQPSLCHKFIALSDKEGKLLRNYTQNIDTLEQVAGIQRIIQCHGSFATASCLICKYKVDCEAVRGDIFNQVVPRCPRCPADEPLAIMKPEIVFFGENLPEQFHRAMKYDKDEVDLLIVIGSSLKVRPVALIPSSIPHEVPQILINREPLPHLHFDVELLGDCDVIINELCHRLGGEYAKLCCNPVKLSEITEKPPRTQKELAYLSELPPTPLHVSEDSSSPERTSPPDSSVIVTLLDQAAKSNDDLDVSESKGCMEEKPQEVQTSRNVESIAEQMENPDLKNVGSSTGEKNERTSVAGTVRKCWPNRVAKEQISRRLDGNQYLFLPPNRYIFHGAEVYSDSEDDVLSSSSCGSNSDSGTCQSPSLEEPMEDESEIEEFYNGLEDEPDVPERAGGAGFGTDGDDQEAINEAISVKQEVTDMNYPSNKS
# Whole data set: some 3,200 compounds, median “TSA(without NAD+) / Primary screening (TSA) / delta Tm (K)” near -0.07, cut for the highest 2% near 0.37. The list shows a part of the results.
# Biological target: NAD-dependent deacetylase Sirtuin 1 (human, UniProt Q96EB6)
# Test: primary screen, delta tm
# Design: single well (n = 1)
# Conditions: 10 µM
# In short: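 Thermal shift of Sirtuin 1 measured without NAD+, compound at 10 µM (n = 1); value is ΔTm, with hits defined as ΔTm > 0.45 K or < −1.5 K. Hits retested at 5, 10, 20 µM (n = 4) and counterscreened on bovine carbonic anhydrase and ABL1 SH2 domain.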
row,Structure (SMILES),TSA(without NAD+) / Primary screening (TSA) / delta Tm (K)
1,N#Cc1c2c(c(Cl)n3c1nc1ccccc13)CCCC2,-0.02 K
2,COc1ccnc(N2CCN(C(=O)c3ccc(C(N)=O)s3)CC2)n1,0.06 K
3,Cc1c(C(=O)C2=C(O)C(=O)N(CCCN3CCOCC3)C2c2cccs2)cnn1-c1ccccc1 (stereo not drawn),-0.02 K
4,O=C(O)c1ccc2[nH]c(CO)nc2c1,-0.22 K
5,CC(C)=CCN,-0.13 K
6,COc1cc(OC)cc(C(=O)NCC(=O)OCC(=O)NCC(=O)Nc2ccc(F)c(F)c2F)c1,0.09 K
7,Cn1ncc2c(N3CCN(CC(=O)Nc4ccc(Cl)cn4)CC3)ncnc21,0.06 K
8,C=CCN(CCO)C(=O)Nc1cccc(I)c1,-0.08 K
9,Cc1cc(C)c(NC(=O)CN(C)C(=O)CNC(=O)C(C)(C)C)c(C)c1,0.02 K
10,Cc1nc(C)c(CC(=O)Oc2ccccc2)c(=O)[nH]1,-0.27 K
11,CCOc1ccc(-n2c(C)cc(C(=O)COc3ccc(C(N)=O)cc3)c2C)cc1,0.03 K
12,Nc1ncnc2c1cnn2-c1ccncc1,-0.23 K
13,COc1cccc(NC(=O)CN(C)C(=O)c2ccccc2SCC(=O)NC23CC4CC(CC(C4)C2)C3)c1,0.07 K
14,COc1ccc(C(=O)C2=C(O)C(=O)N(CCN3CCOCC3)C2c2ccccn2)cc1OC (stereo not drawn),0.17 K
15,CCCOc1cccc(C2C(C(=O)c3ccccc3)=C(O)C(=O)N2CCCN2CCOCC2)c1 (stereo not drawn),-0.08 K
16,CC(c1ccccc1F)N(C)C(=O)CN(C)c1ncnc2nc[nH]c12 (stereo not drawn),-0.03 K
17,CCCc1cc(N2CCC(Cc3ccccc3)CC2)n2ncnc2n1,-0.08 K
18,Cn1c(-c2cccnc2)[n+](C)c2ccccc21,-0.18 K
19,NC(=O)c1ccc(CN2CCN(CCO)CC2)cc1,-0.12 K
20,CN(Cc1ccc(N(C)C)cc1)C(=O)c1cnc2ccccn2c1=O,-0.13 K
21,CC(C)(C)N(Cc1ccccc1)C(=O)Cn1nnc2ccccc2c1=O,-0.13 K
22,O=C(Nc1ccccc1Oc1ccccc1)c1ccccc1[N+](=O)[O-],-0.18 K
23,CCc1ccccc1NC(=O)CNC(=O)CCc1nc2ccccc2[nH]1,-0.12 K
24,CCC(C)c1ccccc1NC(=O)Cc1coc2ccc3ccccc3c12 (stereo not drawn),-0.13 K

row,Structure (SMILES),TSA(without NAD+) / Primary screening (TSA) / delta Tm (K)
1,Cc1n[nH]c(=O)c2c(NC(=O)CN3CCC(O)CC3)oc(C)c12,-0.03 K
2,Nc1nc(-c2c(-c3ccccc3)[nH]c3ccccc23)cs1,0.09 K
3,COc1ccc2cccc(C=C3C(=O)NC(=S)NC3=O)c2c1,-0.22 K
4,CC(CC1CCCCCN1C(=O)OC(C)(C)C)NCc1cccc(C(N)=O)c1 (stereo not drawn),-0.13 K
5,Cc1c(NC=C2C(=O)NC(=S)NC2=O)c(=O)n(-c2ccccc2)n1C,0.07 K
6,Cc1ccc(C(=O)Nc2cccc(/C=c3/s/c(=C(\C#N)C(=O)NCc4ccco4)n(-c4c(C)cccc4C)c3=O)c2)cc1,0.15 K
7,CN(Cc1cccc2ccccc12)c1cc(=O)n2ccccc2n1,-0.43 K
8,Cc1ccc(Nc2nnc(SCC(=O)NC(=O)NCc3ccco3)s2)cc1,0.07 K
9,O=c1c2ccncc2ncn1CC(O)c1cccc(Cl)c1 (stereo not drawn),-0.14 K
10,O=C(NCCc1coc(-c2ccccc2)n1)c1cc(-c2ccco2)on1,0.19 K
11,CC1CCCC(NC(=O)COC(=O)CCCOc2ccccc2)C1C (stereo not drawn),-0.14 K
12,Cc1[nH]c2ccccc2c1C(=O)CN1CCC(C(N)=O)CC1,0.07 K
13,N=C(N)NCCN,-0.04 K
14,Cc1cc(C(=O)COC(=O)c2ccc(-c3ccc(O)cc3)cc2)c(C)n1C,-0.22 K
15,Oc1ccc2ccccc2c1/C=N/c1c(F)c(F)c(F)c(F)c1F,-0.13 K
16,O=C(CC12CC3CC(CC(C3)C1)C2)NCC(=O)Nc1ccc(Sc2nc3ccccc3[nH]2)cc1,0.18 K
17,COc1cccc(NN=C2C(=O)NC(=S)NC2=O)c1,-0.15 K
18,NC(=O)C1CCCCC1Nc1ncnc2cc(F)c(F)cc12 (stereo not drawn),0.06 K
19,O=C(O)C(=O)Nc1ccccc1,0.02 K
20,CC1CCc2[nH]c3ccc(C(=O)N(C)C)cc3c2C1 (stereo not drawn),-0.17 K
21,Cc1nc(C)c(C(=O)C2=C(O)C(=O)N(CCN3CCOCC3)C2c2ccco2)s1 (stereo not drawn),-0.08 K
22,CC1Cc2ccccc2N1c1ncnc2ccsc12 (stereo not drawn),0.07 K
23,CN(c1ccccc1)S(=O)(=O)c1cccc(NC(=O)c2cccc(C#N)c2)c1,0.13 K
24,O=C(CNC1=NS(=O)(=O)c2ccccc21)Nc1ccc(N2CCN(Cc3ccccc3)CC2)cc1,-0.05 K

row,Structure (SMILES),TSA(without NAD+) / Primary screening (TSA) / delta Tm (K)
1,CCCc1ccc(C(Nc2ccc3nnnn3n2)C(C)C)cc1 (stereo not drawn),-0.05 K
2,CC1CC1C(=O)NCc1ccccc1-c1ccc(CN2CCCC2)cc1 (stereo not drawn),0.02 K
3,O=C(C1=C(O)C(=O)N(CCCN2CCOCC2)C1c1cccs1)c1cc2ccccc2o1 (stereo not drawn),0.12 K
4,O=C(CC(c1ccccc1)c1ccccc1)N1CCN(c2ccc([N+](=O)[O-])c3cnccc23)CC1,-0.02 K
5,O=C1COc2cc(C(=O)Nc3ccc4c(c3)-c3ccccc3C4)ccc2N1,0.07 K
6,COc1ccc(Cl)cc1NC(=O)CSc1nnc(-c2ccc(Cl)cc2)n1N,-0.15 K
7,CC(C)C(CNC(=O)COc1ccc(C(N)=O)cc1)N1CCc2ccccc2C1 (stereo not drawn),0.02 K
8,CCCNC(=O)C(C#N)C(=O)c1cc2ccc(C)cc2nc1C (stereo not drawn),-0.22 K
9,C=CCOc1ccc(C(=O)C2=C(O)C(=O)N(CCN3CCOCC3)C2c2ccc(OCC)cc2)cc1 (stereo not drawn),0.07 K
10,C=CC(N)CO (stereo not drawn),-0.28 K
11,CC(=O)N1Cc2ccccc2CC1C(=O)NC1CCOc2ccccc21 (stereo not drawn),-0.13 K
12,CC(C)(C)C(=O)Nc1cccc(NC2CCCCNC2=O)c1 (stereo not drawn),-0.11 K
13,COc1ccc(C2C(C(=O)c3cccs3)=C(O)C(=O)N2CCCN2CCOCC2)cc1OC (stereo not drawn),-0.33 K
14,COc1cccc(C(=O)C2=C(O)C(=O)N(CCCN3CCOCC3)C2c2cccc(F)c2)c1 (stereo not drawn),-0.17 K
15,CC1CCCN(C(=O)CSc2nncn2-c2ccccc2)C1 (stereo not drawn),-0.07 K
16,Cc1cc(C)n(-c2nc(C)nc3c2cnn3-c2ccccc2)n1,-0.07 K
17,Cc1nn(C)c2nc(-c3ccccc3)cc(C(=O)N3CCN(Cc4ccccc4F)CC3)c12,-0.12 K
18,COc1ccnc(C(=O)NCC(C)(C)N2CCC(N(C)C)CC2)c1,-0.21 K
19,O=c1[nH]cnc2c1ncn2-c1ccccc1,-0.17 K
20,CCC(C)(N)CC,0.03 K
21,CC1(C)CC1N (stereo not drawn),-0.22 K
22,O=C(CN(Cc1ccco1)C(=O)Cc1coc2cc(O)ccc12)Nc1ccccc1C(F)(F)F,-0.04 K
23,O=C(Nc1cccc(S(=O)(=O)N2CCOCC2)c1)c1cn(-c2ccccc2)nc1-c1ccc(F)cc1,0.25 K
24,COc1cccc(C2C(C(=O)c3cc4ccccc4o3)=C(O)C(=O)N2CCCN2CCOCC2)c1 (stereo not drawn),0.08 K

row,Structure (SMILES),TSA(without NAD+) / Primary screening (TSA) / delta Tm (K)
1,Cn1ccnc1C(NCc1csc(-c2ccsc2)n1)c1cccc(F)c1 (stereo not drawn),-0.05 K
2,CS(=O)c1ccc(C(=O)Nc2ccccc2NC(=O)N2CCCC2)cc1 (stereo not drawn),-0.28 K
3,NC(=O)c1ccc(S(=O)(=O)N2CCN(c3ncnc4ccccc34)CC2)o1,-0.08 K
4,Cc1ccc(N(C)S(=O)(=O)c2cccc(C(=O)N(C)Cc3ccccc3Cl)c2)cc1,-0.24 K
5,C=C(C)CNC(=S)NC(C)c1cccc(NC(=O)c2ccccc2)c1 (stereo not drawn),-0.23 K
6,NC(=O)c1c(NC(=O)CSc2nc3sc4c(c3c(=O)n2-c2ccccc2)CCC4)sc2c1CCC2,-0.22 K
7,NC(=O)c1ccc(/C=C/C(=O)N2CCC(C(=O)O)(c3ccccc3)CC2)cc1,-0.03 K
8,CCOC(=O)C1=C(COC(=O)c2sc(-c3ccco3)nc2-c2ccccc2)NC(=O)NC1,-0.11 K
9,COc1ccc(/C=C2/Oc3ccc(Br)cc3C2=O)cc1,0.12 K
10,Fc1ccc(-c2cn3cc(Cl)cc(Cl)c3n2)cc1,-0.08 K
11,Cc1sc(NC(=O)c2cnc3ccccc3n2)nc1-c1ccc(F)c(F)c1,-0.11 K
12,NC(=O)c1cc(NCC(=O)N2CCc3ccccc32)c(F)cc1F,-0.12 K
13,COc1ccc(C2C(C(=O)/C=C/c3ccco3)=C(O)C(=O)N2CCN2CCOCC2)cc1 (stereo not drawn),0.06 K
14,Cn1cc(S(=O)(=O)N2CCC(C(=O)NCCOc3ccccc3)CC2)cc1C(N)=O,-0.08 K
15,NC(=O)c1cc(NC(=O)c2ccc(-c3ccccc3Cl)o2)ccc1Cl,-0.21 K
16,CCCCCc1nnc(NC(=O)c2cccc(S(=O)(=O)N(C)c3ccc(OC)cc3)c2)s1,0.22 K
17,COC(=O)c1ccc(C2C(C(=O)c3cccc(OC)c3)=C(O)C(=O)N2CCCN2CCOCC2)cc1 (stereo not drawn),-0.08 K
18,NC(=O)C1CCN(c2nc(-c3cccs3)nc3sc4c(c23)CCCC4)CC1,2.58 K
19,CCc1ccc(NC(c2cccnc2)c2ncc[nH]2)cc1CC (stereo not drawn),-0.18 K
20,O=C(O)c1cc(/N=C/c2c(O)ccc3ccccc23)ccc1O,-0.05 K
21,CC(CN)CN(C)C (stereo not drawn),-0.23 K

# Random excerpt: seven compounds from above
row,Structure (SMILES),TSA(without NAD+) / Primary screening (TSA) / delta Tm (K)
17,COC(=O)c1ccc(C2C(C(=O)c3cccc(OC)c3)=C(O)C(=O)N2CCCN2CCOCC2)cc1 (stereo not drawn),-0.08 K
19,CCc1ccc(NC(c2cccnc2)c2ncc[nH]2)cc1CC (stereo not drawn),-0.18 K
18,NC(=O)C1CCN(c2nc(-c3cccs3)nc3sc4c(c23)CCCC4)CC1,2.58 K
6,NC(=O)c1c(NC(=O)CSc2nc3sc4c(c3c(=O)n2-c2ccccc2)CCC4)sc2c1CCC2,-0.22 K
4,Cc1ccc(N(C)S(=O)(=O)c2cccc(C(=O)N(C)Cc3ccccc3Cl)c2)cc1,-0.24 K
20,O=C(O)c1cc(/N=C/c2c(O)ccc3ccccc23)ccc1O,-0.05 K
21,CC(CN)CN(C)C (stereo not drawn),-0.23 K
